Consider 1 molecule from publication PMC5494183.

No constants are given. Whether binding was seen depends on the method and setting. In cells and extracts the contact can be indirect. Binding can be weak; no strength is given. Sequences can lack the tags named with a protein.

For this experiment, the target named is ΔN10-NANOS2 (mouse). Nature of the experiment: co-IP; HEK 293T cells transfected with MYC- and FLAG-tagged constructs; anti-FLAG M2 affinity beads overnight at 4 °C, five washes; western blot. A general note: In western blotting, separated proteins are transferred to a membrane and probed.

B1: MYC-NDFIP2 (protein, UniProt Q91ZP6 1-311)
chain: RRSASDAELSAGAEGATGSEAAPPGDLGGRTRGGGRGSAAAAATTSTREAEGAERRGDTPARKPDPEAGRMDHHQLGTGRYQVLHNEEDNSESSAVEQPSTSSLAAPTVEAAASAPALDPDSPPPYSSITVEAPTTSDTDVYSEFYPVPPPYSVATSLPTYDEAEKAKAAALAAAAADAPQRNQEEDCTPRDDFSDVEQLRVGNDGIFMLAFFMAFIFNWLGFCLSFCITNTIAGRYGAICGFGLSLIKWILIVRFSDYFTGYFNGQYWLWWIFLVLGLLLFFRGFVNYLKVRNMSESMAAAHRTRYFFLL
Turning to B1, the binding result was “binds weakly”.
